From PMC9264976
These are yes or no findings as the source states them, for the method shown. Binding seen in cells or lysates may run through a third protein. Some entries that bind do so weakly or less than the wild type. Tags and fused reporters may be left off the sequences shown.

Molecular target: T1, prolyl 3-hydroxylase family member 4 (P3H4) fused with 3 × FLAG tag at the C-terminal (UniProt Q92791)
T1 sequence: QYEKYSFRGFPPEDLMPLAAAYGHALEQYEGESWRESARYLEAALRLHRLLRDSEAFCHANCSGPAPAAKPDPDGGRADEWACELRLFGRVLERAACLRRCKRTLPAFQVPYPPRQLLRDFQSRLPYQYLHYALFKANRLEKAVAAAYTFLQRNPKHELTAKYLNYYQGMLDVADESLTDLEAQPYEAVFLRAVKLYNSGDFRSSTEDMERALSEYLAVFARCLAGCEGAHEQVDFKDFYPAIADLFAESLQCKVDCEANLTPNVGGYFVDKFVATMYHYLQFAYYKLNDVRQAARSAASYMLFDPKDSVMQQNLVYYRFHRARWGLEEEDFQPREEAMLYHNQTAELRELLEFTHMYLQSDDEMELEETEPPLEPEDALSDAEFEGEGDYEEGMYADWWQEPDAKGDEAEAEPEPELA
Experiment: co-IP; FLAG-beads on RIPA lysates of A549 stable cell lines over-expressing P3H4-3xFLAG (OE) and negative control (NC); candidate partners detected by Western blot

binding: binds
Substance: Epidermal growth factor receptor (EGFR) (from UniProt P00533 25-1210)
